Source: US20140128733A1, “SYSTEMS AND METHODS FOR HEMODYNAMIC DETECTION OF CIRCULATORY ANOMALIES” (Cardiox Corporation, priority 2008, published 2014)
At least one structure is not confirmed: it was looked up by name or label, or the drawing left a doubt.

Assays:
[1] = Excitation and fluorescence emission wavelengths of the dyes (FIG. 2); format: physicochemical
Excerpt: Looking to FIG. 2 in this regard, the excitation signal for fluorescein dye is represented at curve 30 which is an excitation signal at less than about 500 nanometers (nm). A resultant fluorescence emission from the excitation at 30 is shown at curve 32, at a wavelength of about 525 nm.
Looking to the ICG dye spectrum, an excitation curve is shown at 34, having a peak excitation wavelength at about 785 nanometers. Correspondingly, the fluorescence emission from excitation at curve 34 is represented at curve 36 with a peak emission wavelength of about 830 nanometers. […] Note that if a blood vessel is about one millimeter beneath the surface of skin, the system would perform at about 37% of the original intensity of the excitation signal and fluorescence signal for the case of ICG dye indicator. […]
When an ICG indicator within the bloodstream reaches the site of irradiation with 785 nm (laser) light, the fluorescent moiety within the ICG indicator is excited as described in connection with FIG. 2 to an elevated energy state for a brief period. As the excited moiety returns to its normal energy state, it emits light at a longer wavelength (viz., 830 nm) and the difference between the excitation wavelength (viz., 785 nm) and the fluorescence emission wavelength (viz., 830 nm) is known as the Stokes Shift. […]

[2] = Excitation and fluorescence signal attenuation through tissue versus depth of artery (FIG. 2); format: physicochemical; conditions: FIG. 2 curve 38
Excerpt: Looking to the ICG dye spectrum, an excitation curve is shown at 34, having a peak excitation wavelength at about 785 nanometers. Correspondingly, the fluorescence emission from excitation at curve 34 is represented at curve 36 with a peak emission wavelength of about 830 nanometers. Directed across FIG. 2 is a curve 38 representing the level of constant signal attenuation or absorption of about 37% resulting from passage of signal through tissue. Note that if a blood vessel is about one millimeter beneath the surface of skin, the system would perform at about 37% of the original intensity of the excitation signal and fluorescence signal for the case of ICG dye indicator. In contrast, a 37% decrease in excitation and emission signal level would result for the fluorescein dye indicator at a tissue thickness of only 0.25 mm. Since the blood vessels being targeted are at least 1 mm below the skin surface, the attenuation and associated signal loss would be much larger. Therefore, ICG dye is the preferred indicator.
Turning again to the ICG dye spectrum, note that the excitation signal 34 for ICG intersects curve 38 at a depth allowing for readily reaching blood vessels, for example within the pinna (e.g., scaphoid fossa) of the ear. Accordingly, ICG dye is usable as a circulatory tracking agent when detecting through skin, and ICG dye was the indicator elected for subsequent study.

## O=C1OC2(c3ccc(O)cc3Oc3cc(O)ccc32)c2ccccc21 [fluorescein]
[1]
  excitation wavelength: less than 500 nm
[2]
  tissue depth at constant signal attenuation of about 37%: 0.25 mm
